Laboratory results published in paper PMC12218279.
No constants are given. Whether binding was seen depends on the method and setting. Binding seen in cells or lysates may run through a third protein. For part of these data: Tags and fused reporters may be left off the sequences shown.

The chains behind the UniProt entries cited, without tags or fusion partners.
UniProt C6KT37: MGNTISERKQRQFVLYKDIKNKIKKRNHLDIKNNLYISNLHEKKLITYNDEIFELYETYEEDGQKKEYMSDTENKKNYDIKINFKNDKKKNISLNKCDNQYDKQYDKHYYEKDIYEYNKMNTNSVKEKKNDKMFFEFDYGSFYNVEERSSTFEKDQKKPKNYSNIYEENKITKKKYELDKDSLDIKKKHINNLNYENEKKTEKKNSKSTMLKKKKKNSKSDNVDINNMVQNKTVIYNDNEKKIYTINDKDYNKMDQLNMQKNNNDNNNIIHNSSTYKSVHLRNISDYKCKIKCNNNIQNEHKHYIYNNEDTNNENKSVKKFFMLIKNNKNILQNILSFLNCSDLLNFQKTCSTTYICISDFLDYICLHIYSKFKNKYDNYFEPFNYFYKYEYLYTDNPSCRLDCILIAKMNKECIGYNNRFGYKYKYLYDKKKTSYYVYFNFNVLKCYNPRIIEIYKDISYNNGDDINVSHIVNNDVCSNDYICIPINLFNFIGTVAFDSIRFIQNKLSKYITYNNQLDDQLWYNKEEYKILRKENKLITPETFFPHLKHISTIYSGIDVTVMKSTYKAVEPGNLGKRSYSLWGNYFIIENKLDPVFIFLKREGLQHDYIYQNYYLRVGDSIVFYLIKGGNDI

T1: PfMCM4-Flag (P. falciparum) (UniProt Q8IEE5)
T1 sequence: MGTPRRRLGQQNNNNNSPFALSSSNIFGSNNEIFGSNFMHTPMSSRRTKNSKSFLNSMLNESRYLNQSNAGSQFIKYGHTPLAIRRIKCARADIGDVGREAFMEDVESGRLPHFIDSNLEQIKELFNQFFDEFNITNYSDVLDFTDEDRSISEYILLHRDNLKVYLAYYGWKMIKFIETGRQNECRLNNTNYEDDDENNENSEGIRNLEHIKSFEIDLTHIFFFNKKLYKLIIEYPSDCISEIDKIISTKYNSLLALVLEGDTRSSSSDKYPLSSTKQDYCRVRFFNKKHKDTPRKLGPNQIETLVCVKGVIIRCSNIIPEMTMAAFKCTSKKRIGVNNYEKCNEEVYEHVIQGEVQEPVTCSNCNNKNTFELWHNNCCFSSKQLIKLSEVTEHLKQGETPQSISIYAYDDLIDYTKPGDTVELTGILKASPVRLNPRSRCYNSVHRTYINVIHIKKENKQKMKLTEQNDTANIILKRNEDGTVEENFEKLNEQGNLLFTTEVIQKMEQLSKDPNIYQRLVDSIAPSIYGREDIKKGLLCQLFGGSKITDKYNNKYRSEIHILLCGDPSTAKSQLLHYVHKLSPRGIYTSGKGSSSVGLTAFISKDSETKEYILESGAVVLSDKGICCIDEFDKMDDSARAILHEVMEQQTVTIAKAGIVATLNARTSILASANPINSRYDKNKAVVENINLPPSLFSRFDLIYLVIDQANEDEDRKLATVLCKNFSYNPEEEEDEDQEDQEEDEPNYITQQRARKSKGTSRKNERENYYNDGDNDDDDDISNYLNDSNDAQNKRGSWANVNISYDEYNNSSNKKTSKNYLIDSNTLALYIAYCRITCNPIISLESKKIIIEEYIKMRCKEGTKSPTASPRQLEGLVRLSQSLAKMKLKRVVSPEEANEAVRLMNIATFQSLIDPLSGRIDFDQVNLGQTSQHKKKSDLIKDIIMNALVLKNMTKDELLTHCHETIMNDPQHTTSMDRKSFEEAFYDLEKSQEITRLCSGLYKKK


How the values were obtained:
[1] = molecular target: PfFBOX01-HA (P. falciparum) (UniProt C6KT37); experiment: co-IP; immunoprecipitation of PfFBOX01-HA from schizonts that also carry a C-terminally FLAG-tagged candidate substrate; immunoblot (Fig. S5 and S13)
[2] = molecular target: T1, PfMCM4-Flag (P. falciparum); experiment: co-IP; anti-Flag immunoprecipitation of MCM4-Flag from DiCre-PfSKP1-HA + MCM4-Flag or DiCre-PfRBX1-HA + MCM4-Flag schizonts pre-treated with DMSO or 10 nM rapamycin; immunoblot with anti-Flag, anti-ubiquitin and anti-HA

| binding [2] | Molecule | binding [1] |
| --- | --- | --- |
|  | PF3D7_1423300 (protein phosphatase 7) tagged at the C-terminus with FLAG epitopes (from UniProt Q8ILL9 1-959) (enzyme) | no binding |
| no binding | PfSKP1-HA (protein, UniProt Q8ID38 1-162) MKNDKIKLVSFEGDEFIVDKNTASMSTVIMNILEVMTAEEDTIPLPNIKTPILKKIIEYMEYHINNPADEIPKPLITSNLQDVVSSWDFDFVNTDKETLYELIEASNYLDIKPLLDLTCGKIASMMKDKTTEEIRAEFDIVNDFTREEEKQIREENRWCGDI |  |
| no binding | PfRBX1-HA (protein, UniProt O77367 1-107) MADNITNDKRDIFKIHKWSAVAAWSWDISVDNCAICRNHIMDLCIECQAKTTDHENDKDKKIDKEGCTVAWGVCNHAFHLHCISRWIKARQVCPLDNTTWEFQKATD |  |
